# Measured values taken from paper PMC4613498.
# Sequences of proteins named here, by UniProt entry; tags and fusion partners are left off. A change or cut given only in a name is not applied to a line headed by its entry.
# UniProt Q9ULM6: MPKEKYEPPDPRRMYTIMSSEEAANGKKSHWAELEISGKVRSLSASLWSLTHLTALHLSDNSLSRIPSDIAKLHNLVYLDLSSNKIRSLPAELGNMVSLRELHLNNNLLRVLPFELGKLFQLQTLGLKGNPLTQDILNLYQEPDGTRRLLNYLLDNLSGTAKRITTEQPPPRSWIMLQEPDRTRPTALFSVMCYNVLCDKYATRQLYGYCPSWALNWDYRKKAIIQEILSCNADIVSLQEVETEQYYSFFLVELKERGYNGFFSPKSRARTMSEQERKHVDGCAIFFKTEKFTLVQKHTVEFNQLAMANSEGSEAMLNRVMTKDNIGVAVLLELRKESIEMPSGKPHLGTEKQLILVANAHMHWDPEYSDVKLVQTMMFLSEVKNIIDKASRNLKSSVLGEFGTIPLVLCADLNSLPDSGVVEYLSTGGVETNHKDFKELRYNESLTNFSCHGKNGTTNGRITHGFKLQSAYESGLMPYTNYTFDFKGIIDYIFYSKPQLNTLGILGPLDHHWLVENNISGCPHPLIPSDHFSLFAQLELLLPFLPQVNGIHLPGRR
# UniProt P78543: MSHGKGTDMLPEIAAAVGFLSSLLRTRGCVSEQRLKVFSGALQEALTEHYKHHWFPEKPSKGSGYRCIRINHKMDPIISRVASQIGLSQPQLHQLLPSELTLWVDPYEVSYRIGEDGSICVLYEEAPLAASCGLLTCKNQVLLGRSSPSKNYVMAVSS
# UniProt Q9UIV1: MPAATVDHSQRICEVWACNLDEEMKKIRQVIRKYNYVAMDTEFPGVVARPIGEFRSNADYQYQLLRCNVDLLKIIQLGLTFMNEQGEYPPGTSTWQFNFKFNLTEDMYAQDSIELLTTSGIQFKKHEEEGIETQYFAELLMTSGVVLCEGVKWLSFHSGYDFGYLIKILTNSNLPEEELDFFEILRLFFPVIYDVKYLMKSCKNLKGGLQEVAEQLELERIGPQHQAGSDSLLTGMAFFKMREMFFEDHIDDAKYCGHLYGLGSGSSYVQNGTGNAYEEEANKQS
# Results are given in words; binding and its absence hold for the method and conditions named. In cells and extracts the contact can be indirect. Some results given as binding are weak or reduced against the parent protein; the word gives no strength.
# Key:
# Experiment in all cases: pull-down; co-expression in E. coli; sequential affinity purification: His•BTG2 on Co2+-agarose, then GST•Ccr4 on glutathione (Pierce GST spin columns); SDS/PAGE and immunoblot of the purified complexes
# [1] = molecular target: GST•Ccr4a (human) (UniProt Q9ULM6)
# [2] = molecular target: GST•Ccr4a E240A (human) (UniProt Q9ULM6)
# [3] = molecular target: His•BTG2 (human) (UniProt P78543)
binding [1],binding [2],binding [3],Substance
binds,binds,–,Caf1/CNOT7 (from UniProt Q9UIV1 1-285) (enzyme)
binds,binds,–,Caf1/CNOT7 D40A (from UniProt Q9UIV1 1-285) (enzyme)
–,–,binds,GST•Ccr4a (from UniProt Q9ULM6 1-557) (enzyme)
–,–,binds,GST•Ccr4a E240A (from UniProt Q9ULM6 1-557) (enzyme)
